These results are taken from article PMC3946611, “hCLE/C14orf166 Associates with DDX1-HSPC117-FAM98B in a Novel Transcription-Dependent Shuttling RNA-Transporting Complex” (PLoS ONE, 2014).

The chains behind the UniProt entries cited, without tags or fusion partners.
UniProt Q9H1R3: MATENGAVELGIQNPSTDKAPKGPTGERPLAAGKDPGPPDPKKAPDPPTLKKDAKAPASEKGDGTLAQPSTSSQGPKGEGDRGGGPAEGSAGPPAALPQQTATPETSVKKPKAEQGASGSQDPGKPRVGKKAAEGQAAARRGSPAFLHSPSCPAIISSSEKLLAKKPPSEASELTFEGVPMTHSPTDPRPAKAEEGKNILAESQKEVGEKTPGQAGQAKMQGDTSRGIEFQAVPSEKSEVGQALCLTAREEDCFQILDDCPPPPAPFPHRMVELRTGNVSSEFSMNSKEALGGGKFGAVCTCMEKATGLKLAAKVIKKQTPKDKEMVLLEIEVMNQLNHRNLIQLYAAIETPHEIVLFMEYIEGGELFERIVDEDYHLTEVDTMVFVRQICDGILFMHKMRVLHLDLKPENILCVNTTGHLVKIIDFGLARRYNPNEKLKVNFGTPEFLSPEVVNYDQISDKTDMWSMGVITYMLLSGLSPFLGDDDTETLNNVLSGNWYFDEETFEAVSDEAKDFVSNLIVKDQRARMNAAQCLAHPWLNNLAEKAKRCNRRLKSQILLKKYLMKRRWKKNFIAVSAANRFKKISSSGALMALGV
UniProt Q9NRC6: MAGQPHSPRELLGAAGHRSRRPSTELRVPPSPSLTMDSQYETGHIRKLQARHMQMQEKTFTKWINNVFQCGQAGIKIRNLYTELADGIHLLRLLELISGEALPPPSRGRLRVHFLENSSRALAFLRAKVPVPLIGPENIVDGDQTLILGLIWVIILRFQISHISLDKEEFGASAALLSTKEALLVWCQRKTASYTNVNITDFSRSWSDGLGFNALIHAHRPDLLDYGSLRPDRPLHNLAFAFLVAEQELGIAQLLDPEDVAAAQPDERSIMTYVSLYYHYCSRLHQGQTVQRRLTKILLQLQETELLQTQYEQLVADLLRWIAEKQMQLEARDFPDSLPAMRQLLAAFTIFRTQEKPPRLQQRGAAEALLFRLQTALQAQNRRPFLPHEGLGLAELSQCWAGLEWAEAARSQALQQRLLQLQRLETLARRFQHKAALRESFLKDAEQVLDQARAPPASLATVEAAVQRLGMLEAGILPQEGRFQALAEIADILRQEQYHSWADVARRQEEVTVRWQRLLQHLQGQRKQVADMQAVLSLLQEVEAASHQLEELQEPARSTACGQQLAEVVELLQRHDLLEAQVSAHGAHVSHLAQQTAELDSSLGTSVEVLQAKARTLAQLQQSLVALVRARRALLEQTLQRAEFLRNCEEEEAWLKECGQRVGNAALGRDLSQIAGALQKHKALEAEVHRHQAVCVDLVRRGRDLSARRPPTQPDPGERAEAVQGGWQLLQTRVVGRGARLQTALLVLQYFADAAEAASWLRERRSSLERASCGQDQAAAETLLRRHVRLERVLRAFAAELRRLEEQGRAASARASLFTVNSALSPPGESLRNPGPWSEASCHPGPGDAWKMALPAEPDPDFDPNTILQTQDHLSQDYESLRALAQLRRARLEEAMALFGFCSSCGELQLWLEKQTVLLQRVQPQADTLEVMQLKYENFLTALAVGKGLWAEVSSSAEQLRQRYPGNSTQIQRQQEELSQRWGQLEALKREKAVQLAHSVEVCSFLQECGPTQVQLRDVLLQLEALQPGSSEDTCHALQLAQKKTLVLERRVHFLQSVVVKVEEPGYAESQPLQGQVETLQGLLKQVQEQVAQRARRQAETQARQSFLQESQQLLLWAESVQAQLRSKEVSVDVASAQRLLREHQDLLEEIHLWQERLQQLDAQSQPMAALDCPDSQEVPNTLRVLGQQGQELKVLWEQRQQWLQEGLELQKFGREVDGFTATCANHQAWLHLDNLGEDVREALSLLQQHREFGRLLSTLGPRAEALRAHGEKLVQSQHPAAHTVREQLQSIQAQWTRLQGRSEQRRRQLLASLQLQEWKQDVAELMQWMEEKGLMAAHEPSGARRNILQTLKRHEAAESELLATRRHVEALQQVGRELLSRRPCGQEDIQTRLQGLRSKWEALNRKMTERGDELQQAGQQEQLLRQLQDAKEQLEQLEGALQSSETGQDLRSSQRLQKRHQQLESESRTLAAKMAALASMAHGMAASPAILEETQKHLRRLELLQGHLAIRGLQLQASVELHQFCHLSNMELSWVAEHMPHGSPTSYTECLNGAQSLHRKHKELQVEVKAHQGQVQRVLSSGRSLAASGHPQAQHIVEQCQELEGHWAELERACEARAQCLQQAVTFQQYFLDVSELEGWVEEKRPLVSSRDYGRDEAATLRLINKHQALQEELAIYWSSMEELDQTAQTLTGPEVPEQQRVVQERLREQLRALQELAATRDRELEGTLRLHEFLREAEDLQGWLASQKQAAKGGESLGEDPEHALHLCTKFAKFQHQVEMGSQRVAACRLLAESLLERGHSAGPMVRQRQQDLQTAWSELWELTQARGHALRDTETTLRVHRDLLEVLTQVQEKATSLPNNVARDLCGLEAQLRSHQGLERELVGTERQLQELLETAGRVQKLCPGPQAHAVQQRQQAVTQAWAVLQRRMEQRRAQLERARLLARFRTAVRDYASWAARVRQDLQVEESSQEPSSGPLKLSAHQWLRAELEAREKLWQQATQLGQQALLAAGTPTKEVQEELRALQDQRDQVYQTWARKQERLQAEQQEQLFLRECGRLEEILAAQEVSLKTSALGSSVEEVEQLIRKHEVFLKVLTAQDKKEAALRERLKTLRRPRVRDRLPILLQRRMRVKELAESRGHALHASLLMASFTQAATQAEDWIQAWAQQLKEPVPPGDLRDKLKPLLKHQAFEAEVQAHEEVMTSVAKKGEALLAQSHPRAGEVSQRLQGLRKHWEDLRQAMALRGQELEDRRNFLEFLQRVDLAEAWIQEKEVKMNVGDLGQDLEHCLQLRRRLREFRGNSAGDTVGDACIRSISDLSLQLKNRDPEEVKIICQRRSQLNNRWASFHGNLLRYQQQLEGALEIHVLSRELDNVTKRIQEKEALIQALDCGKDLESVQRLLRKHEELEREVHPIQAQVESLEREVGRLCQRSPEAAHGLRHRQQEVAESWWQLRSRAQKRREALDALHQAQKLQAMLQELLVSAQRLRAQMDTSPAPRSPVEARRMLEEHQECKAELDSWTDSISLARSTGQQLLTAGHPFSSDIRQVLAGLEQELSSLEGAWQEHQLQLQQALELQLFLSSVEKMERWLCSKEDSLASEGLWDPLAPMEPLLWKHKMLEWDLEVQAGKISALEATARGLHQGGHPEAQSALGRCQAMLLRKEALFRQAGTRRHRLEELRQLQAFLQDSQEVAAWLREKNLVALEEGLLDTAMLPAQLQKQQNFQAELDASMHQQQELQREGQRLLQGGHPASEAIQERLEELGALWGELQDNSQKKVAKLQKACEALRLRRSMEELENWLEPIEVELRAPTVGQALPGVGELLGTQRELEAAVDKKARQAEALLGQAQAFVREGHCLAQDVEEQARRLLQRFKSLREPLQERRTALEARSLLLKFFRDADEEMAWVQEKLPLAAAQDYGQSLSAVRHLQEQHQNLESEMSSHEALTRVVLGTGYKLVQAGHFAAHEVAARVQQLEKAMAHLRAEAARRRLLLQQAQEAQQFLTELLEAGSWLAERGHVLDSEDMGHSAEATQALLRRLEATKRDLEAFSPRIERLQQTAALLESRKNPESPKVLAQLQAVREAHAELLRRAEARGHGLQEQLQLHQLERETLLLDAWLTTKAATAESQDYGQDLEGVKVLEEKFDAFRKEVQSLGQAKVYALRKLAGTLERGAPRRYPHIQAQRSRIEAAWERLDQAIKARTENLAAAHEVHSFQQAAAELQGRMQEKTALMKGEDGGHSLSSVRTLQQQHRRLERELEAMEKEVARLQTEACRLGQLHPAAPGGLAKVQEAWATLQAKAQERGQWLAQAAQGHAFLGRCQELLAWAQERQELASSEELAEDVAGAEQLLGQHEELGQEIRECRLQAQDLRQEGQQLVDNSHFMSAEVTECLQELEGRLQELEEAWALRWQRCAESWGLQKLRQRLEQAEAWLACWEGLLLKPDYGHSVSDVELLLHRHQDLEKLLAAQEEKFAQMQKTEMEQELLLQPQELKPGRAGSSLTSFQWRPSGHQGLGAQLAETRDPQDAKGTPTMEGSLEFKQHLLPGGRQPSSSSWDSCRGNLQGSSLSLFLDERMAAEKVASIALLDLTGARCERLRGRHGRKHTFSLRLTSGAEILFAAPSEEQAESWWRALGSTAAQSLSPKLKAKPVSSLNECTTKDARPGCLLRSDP

These are yes or no findings as the source states them, for the method shown. Binding seen in cells or lysates may run through a third protein. A yes stands for co-enrichment or nearness to the bait. Other partners may have been found. Sequences can lack the tags named with a protein.

Test [1] addresses T1, hCLE-TAP tagged protein, purified as hCLE-CBD (human) (UniProt Q9Y224).
T1 sequence: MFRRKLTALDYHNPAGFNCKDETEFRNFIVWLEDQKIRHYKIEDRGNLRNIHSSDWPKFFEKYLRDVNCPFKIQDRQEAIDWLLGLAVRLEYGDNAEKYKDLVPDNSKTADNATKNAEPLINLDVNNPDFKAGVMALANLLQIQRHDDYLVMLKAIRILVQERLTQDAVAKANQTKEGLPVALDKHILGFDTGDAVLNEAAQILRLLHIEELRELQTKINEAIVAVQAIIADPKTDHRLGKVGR
The experiment in a line: affinity purification with mass spectrometry; TAP purification of hCLE-TAP from cytosolic extracts of transfected HEK293T cells (150 mM NaCl); LC-MS/MS; TAP alone as control.

The target in test [2] is T1, hCLE-TAP tagged protein, purified as hCLE-CBD (human). As to the kind of experiment: affinity purification with mass spectrometry; TAP purification of hCLE-TAP from nuclear extracts of transfected HEK293T cells (150 mM NaCl, 10 mM Tris-HCl pH 8.0, 0.1% NP-40); LC-MS/MS; TAP alone as control.

Take “Myosin light chain kinase 2, skeletal/cardiac muscle (from UniProt Q9H1R3 1-596)”: the binding result in test [1] and in test [2] was “binds” throughout.

For “Protein FAM98A (from UniProt Q8NCA5 1-518)”, the binding result in test [1] and in test [2] was “binds” throughout.

In the case of “Spectrin beta chain, non-erythrocytic 5 (from UniProt Q9NRC6 1-3674)”, the binding entry in test [1] and in test [2] was “binds” throughout.

B1: Fragile X mental retardation-interacting protein 2 (protein, UniProt Q7Z417 1-695)
chain: MEEKPGQPQPQHHHSHHHPHHHPQQQQQQPHHHHHYYFYNHSHNHHHHHHHQQPHQYLQHGAEGSPKAQPKPLKHEQKHTLQQHQETPKKKTGYGELNGNAGEREISLKNLSSDEATNPISRVLNGNQQVVDTSLKQTVKANTFGKAGIKTKNFIQKNSMDKKNGKSYENKSGENQSVDKSDTIPIPNGVVTNNSGYITNGYMGKGADNDGSGSESGYTTPKKRKARRNSAKGCENLNIVQDKIMQQETSVPTLKQGLETFKPDYSEQKGNRVDGSKPIWKYETGPGGTSRGKPAVGDMLRKSSDSKPGVSSKKFDDRPKGKHASAVASKEDSWTLFKPPPVFPVDNSSAKIVPKISYASKVKENLNKTIQNSSVSPTSSSSSSSSTGETQTQSSSRLSQVPMSALKSVTSANFSNGPVLAGTDGNVYPPGGQPLLTTAANTLTPISSGTDSVLQDMSLTSAAVEQIKTSLFIYPSNMQTMLLSTAQVDLPSQTDQQNLGDIFQNQWGLSFINEPSAGPETVTGKSSEHKVMEVTFQGEYPATLVSQGAEIIPSGTEHPVFPKAYELEKRTSPQVLGSILKSGTTSESGALSLEPSHIGDLQKADTSSQGALVFLSKDYEIESQNPLASPTNTLLGSAKEQRYQRGLERNDSWGSFDLRAAIVYHTKEMESIWNLQKQDPKRIITYNEAMDSPDQ
Turning to B1, the binding entry in test [1] is listed as “binds”.

B2: Migration and invasion-inhibitory protein (protein, UniProt Q5JXC2 1-388)
chain: MVEAEELAQLRLLNLELLRQLWVGQDAVRRSVARAASESSLESSSSYNSETPSTPETSSTSLSTSCPRGRSSVWGPPDACRGDLRDVARSGVASLPPAKCQHQESLGRPRPHSAPSLGTSSLRDPEPSGRLGDPGPQEAQTPRSILAQQSKLSKPRVTFSEESAVPKRSWRLRPYLGYDWIAGSLDTSSSITSQPEAFFSKLQEFRETNKEECICSHPEPQLPGLRESSGSGVEEDHECVYCYRVNRRLFPVPVDPGTPCRLCRTPRDQQGPGTLAQPAHVRVSIPLSILEPPHRYHIHRRKSFDASDTLALPRHCLLGWDIFPPKSEKSSAPRNLDLWSSVSAEAQHQKLSGTSSPFHPASPMQMLPPTPTWSVPQVPRPHVPRQKP
With B2, the binding result in test [1] is listed as “binds”.
